The numbers were not newly measured in US6127355A (priority 1999, dated 2000), which cites them from elsewhere.

For this data set the following is noted: in words, background; cited from earlier work.

For `CC[C@@]1(O)C(=O)OCc2c1cc1n(c2=O)Cc2cc3ccccc3nc2-1` [Camptothecin, reference compound], the water solubility entry is “water-insoluble”. Regarding `CC(=O)O[C@H]1C(=O)[C@@]2(C)[C@H]([C@H](OC(=O)c3ccccc3)[C@]3(O)C[C@H](OC(=O)[C@H](O)[C@@H](NC(=O)c4ccccc4)c4ccccc4)C(C)=C1C3(C)C)[C@]1(OC(C)=O)CO[C@@H]1C[C@@H]2O` [paclitaxel], the water solubility entry is on record as “insoluble in water”.
